For experiment [1], the target named is T1, GST-tagged Rab19 (UniProt A4D1S5).
T1 sequence: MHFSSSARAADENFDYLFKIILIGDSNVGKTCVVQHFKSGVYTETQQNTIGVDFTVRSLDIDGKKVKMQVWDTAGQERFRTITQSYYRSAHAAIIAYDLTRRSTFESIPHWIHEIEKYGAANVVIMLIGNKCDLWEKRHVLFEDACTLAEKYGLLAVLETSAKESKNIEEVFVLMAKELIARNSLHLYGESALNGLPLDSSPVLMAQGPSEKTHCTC
The experiment in a line: pull-down; purified GST–Rab19 added to lysates of HEK293T cells overexpressing HA–Vps3 or Vps8–GFP, captured on glutathione beads; western blot; only the target purified. Background: A western blot detects proteins with antibodies after separation by electrophoresis.

For experiment [2], the target named is T1, GST-tagged Rab19. Nature of the experiment: pull-down; purified GST–Rab19 added to HEK293T cell lysates (with siRNA knockdown of Vps39, or of Vps41 and Vps39 together; also with purified recombinant Rab7A added), captured on glutathione beads; immunoblot for endogenous Vps11; only the target purified.

This is an account of results in paper PMC10499034.

Results are given in words; binding and its absence hold for the method and conditions named. In cells and extracts the contact can be indirect. Some entries that bind do so weakly or less than the wild type. Tags and fused reporters may be left off the sequences shown.

B1: HA–Vps3 (protein, UniProt Q8WUH2 1-860)
chain: MMSIKAFTLVSAVERELLMGDKERVNIECVECCGRDLYVGTNDCFVYHFLLEERPVPAGPATFTATKQLQRHLGFKKPVNELRAASALNRLLVLCDNSISLVNMLNLEPVPSGARIKGAATFALNENPVSGDPFCVEVCIISVKRRTIQMFLVYEDRVQIVKEVSTAEQPLAVAVDGHFLCLALTTQYIIHNYSTGVSQDLFPYCSEERPPIVKRIGRQEFLLAGPGGLGMFATVAGISQRAPVHWSENVIGAAVSFPYVIALDDEFITVHSMLDQQQKQTLPFKEGHILQDFEGRVIVATSKGVYILVPLPLEKQIQDLLASRRVEEALVLAKGARRNIPKEKFQVMYRRILQQAGFIQFAQLQFLEAKELFRSGQLDVRELISLYPFLLPTSSSFTRSHPPLHEYADLNQLTQGDQEKMAKCKRFLMSYLNEVRSTEVANGYKEDIDTALLKLYAEADHDSLLDLLVTENFCLLTDSAAWLEKHKKYFALGLLYHYNNQDAAAVQLWVNIVNGDVQDSTRSDLYEYIVDFLTYCLDEELVWAYADWVLQKSEEVGVQVFTKRPLDEQQKNSFNPDDIINCLKKYPKALVKYLEHLVIDKRLQKEEYHTHLAVLYLEEVLLQRASASGKGAEATETQAKLRRLLQKSDLYRVHFLLERLQGAGLPMESAILHGKLGEHEKALHILVHELQDFAAAEDYCLWCSEGRDPPHRQQLFHTLLAIYLHAGPTAHELAVAAVDLLNRHATEFDAAQVLQMLPDTWSVQLLCPFLMGAMRDSIHARRTMQVALGLARSENLIYTYDKMKLKGSSIQLSDKKLCQICQNPFCEPVFVRYPNGGLVHTHCAASRHTNPSSSSPGTRT
For B1, the binding entry in the experiment with GST-tagged Rab19 [1] is on record as “binds”.

B2: Vps8–GFP (protein, UniProt Q8N3P4 1-1428)
chain: MENEPDHENVEQSLCAKTSEEELNKSFNLEASLSKFSYIDMDKELEFKNDLIDDKEFDIPQVDTPPTLESILNETDDEDESFILEDPTLLNIDTIDSHSYDTSSVASSDSGDRTNLKRKKKLPDSFSLHGSVMRHSLLKGISAQIVSAADKVDAGLPTAIAVSSLIAVGTSHGLALIFGKDQNQALRLCLGSTSVGGQYGAISALSINNDCSRLLCGFAKGQITMWDLASGKLLRSITDAHPPGTAILHIKFTDDPTLAICNDSGGSVFELTFKRVMGVRTCESRCLFSGSKGEVCCIEPLHSKPELKDHPITQFSLLAMASLTKILVIGLKPSLKVWMTFPYGRMDPSSVPLLAWHFVAVQNYVNPMLAFCRGDVVHFLLVKRDESGAIHVTKQKHLHLYYDLINFTWINSRTVVLLDSVEKLHVIDRQTQEELETVEISEVQLVYNSSHFKSLATGGNVSQALALVGEKACYQSISSYGGQIFYLGTKSVYVMMLRSWRERVDHLLKQDCLTEALALAWSFHEGKAKAVVGLSGDASKRKAIVADRMVEILFHYADRALKKCPDQGKIQVMEQHFQDMVPVIVDYCLLLQRKDLLFSQMYDKLSENSVAKGVFLECLEPYILSDKLVGITPQVMKDLIVHFQDKKLMENVEALIVHMDITSLDIQQVVLMCWENRLYDAMIYVYNRGMNEFISPMEKLFRVIAPPLNAGKTLTDEQVVMGNKLLVYISCCLAGRAYPLGDIPEDLVPLVKNQVFEFLIRLHSAEASPEEEIYPYIRTLLHFDTREFLNVLALTFEDFKNDKQAVEYQQRIVDILLKVMVENSDFTPSQVGCLFTFLARQLAKPDNTLFVNRTLFDQVLEFLCSPDDDSRHSERQQVLLELLQAGGIVQFEESRLIRMAEKAEFYQICEFMYEREHQYDKIIDCYLRDPLREEEVFNYIHNILSIPGHSAEEKQSVWQKAMDHIEELVSLKPCKAAELVATHFSGHIETVIKKLQNQVLLFKFLRSLLDPREGIHVNQELLQISPCITEQFIELLCQFNPTQVIETLQVLECYRLEETIQITQKYQLHEVTAYLLEKKGDIHGAFLIMLERLQSKLQEVTHQGENTKEDPSLKDVEDTMVETIALCQRNSHNLNQQQREALWFPLLEAMMAPQKLSSSAIPHLHSEALKSLTMQVLNSMAAFIALPSILQRILQDPVYGKGKLGEIQGLILGMLDTFNYEQTLLETTTSLLNQDLHWSLCNLRASVTRGLNPKQDYCSICLQQYKRRQEMADEIIVFSCGHLYHSFCLQNKECTVEFEGQTRWTCYKCSSSNKVGKLSENSSEIKKGRITPSQVKMSPSYHQSKGDPTAKKGTSEPVLDPQQIQAFDQLCRLYRGSSRLALLTELSQNRSSESYRPFSGSQSAPAFNSIFQNENFQLQLIPPPVTED
Consider B2, for which the binding result with GST-tagged Rab19 [1] was “binds”.

B3: Vps11 (endogenous, HEK293T cells) (protein, UniProt Q9H270 1-941)
chain: MAAYLQWRRFVFFDKELVKEPLSNDGAAPGATPASGSAASKFLCLPPGITVCDSGRGSLVFGDMEGQIWFLPRSLQLTGFQAYKLRVTHLYQLKQHNILASVGEDEEGINPLVKIWNLEKRDGGNPLCTRIFPAIPGTEPTVVSCLTVHENLNFMAIGFTDGSVTLNKGDITRDRHSKTQILHKGNYPVTGLAFRQAGKTTHLFVVTTENVQSYIVSGKDYPRVELDTHGCGLRCSALSDPSQDLQFIVAGDECVYLYQPDERGPCFAFEGHKLIAHWFRGYLIIVSRDRKVSPKSEFTSRDSQSSDKQILNIYDLCNKFIAYSTVFEDVVDVLAEWGSLYVLTRDGRVHALQEKDTQTKLEMLFKKNLFEMAINLAKSQHLDSDGLAQIFMQYGDHLYSKGNHDGAVQQYIRTIGKLEPSYVIRKFLDAQRIHNLTAYLQTLHRQSLANADHTTLLLNCYTKLKDSSKLEEFIKKKSESEVHFDVETAIKVLRQAGYYSHALYLAENHAHHEWYLKIQLEDIKNYQEALRYIGKLPFEQAESNMKRYGKILMHHIPEQTTQLLKGLCTDYRPSLEGRSDREAPGCRANSEEFIPIFANNPRELKAFLEHMSEVQPDSPQGIYDTLLELRLQNWAHEKDPQVKEKLHAEAISLLKSGRFCDVFDKALVLCQMHDFQDGVLYLYEQGKLFQQIMHYHMQHEQYRQVISVCERHGEQDPSLWEQALSYFARKEEDCKEYVAAVLKHIENKNLMPPLLVVQTLAHNSTATLSVIRDYLVQKLQKQSQQIAQDELRVRRYREETTRIRQEIQELKASPKIFQKTKCSICNSALELPSVHFLCGHSFHQHCFESYSESDADCPTCLPENRKVMDMIRAQEQKRDLHDQFQHQLKCSNDSFSVIADYFGRGVFNKLTLLTDPPTARLTSSLEAGLQRDLLMHSRRGT
For the molecule B3, the binding entry in the experiment with GST-tagged Rab19 [2] is given as “binds”.
